Read-outs that look alike come from different tables or passages of the source. Results are given in words; binding and its absence hold for the method and conditions named. Binding seen in cells or lysates may run through a third protein. Some binding calls cover weakened binding; strength is not graded here.
B1: palmitoyl acyltransferase DHHC4 (enzyme, UniProt Q9D6H5 1-343)
chain: MDFLVLFLFYLAFLLICVVLICIFTKSQRLKAVVLGGAQVCSRVIPQCLQRAVQTLLHQLFHTRHPTFIVLHLLLQGLVYAEYTCEVFGYCRELEFSLPYLLLPYVLLSVNLVFFTLTCAANPGTITKANESFLLQVYKFDDVMFPKNSRCPTCDLRKPARSKHCRLCDRCVHRFDHHCVWVNNCIGAWNTRYFLIYLLTLTASAATIATVTAAFLLRLVTVSDLYQETYLDDVGHFQAVDTVFLIQHLFLAFPRIVFLLGFVIVLSMLLAGYLCFALYLAATNQTTNEWYKGDWAWCQRWPLVAWSPSAEPRIHQNIHSHGFRSNLREIFLPATPSYKKKEK

The chains behind the UniProt entries cited, without tags or fusion partners.
UniProt Q08857: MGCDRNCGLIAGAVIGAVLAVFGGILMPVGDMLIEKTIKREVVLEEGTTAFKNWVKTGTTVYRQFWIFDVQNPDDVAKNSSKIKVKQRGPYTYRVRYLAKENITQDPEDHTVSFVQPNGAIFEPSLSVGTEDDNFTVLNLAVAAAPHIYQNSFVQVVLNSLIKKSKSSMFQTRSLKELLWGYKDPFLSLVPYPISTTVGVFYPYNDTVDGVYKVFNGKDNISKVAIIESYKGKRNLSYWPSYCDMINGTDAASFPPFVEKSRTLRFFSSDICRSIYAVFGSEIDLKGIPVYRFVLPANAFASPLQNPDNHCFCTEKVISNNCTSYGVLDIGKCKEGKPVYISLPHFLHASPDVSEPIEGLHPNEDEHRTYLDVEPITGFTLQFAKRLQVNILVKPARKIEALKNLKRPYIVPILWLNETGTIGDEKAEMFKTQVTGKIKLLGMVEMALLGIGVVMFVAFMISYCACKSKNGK
UniProt P39688: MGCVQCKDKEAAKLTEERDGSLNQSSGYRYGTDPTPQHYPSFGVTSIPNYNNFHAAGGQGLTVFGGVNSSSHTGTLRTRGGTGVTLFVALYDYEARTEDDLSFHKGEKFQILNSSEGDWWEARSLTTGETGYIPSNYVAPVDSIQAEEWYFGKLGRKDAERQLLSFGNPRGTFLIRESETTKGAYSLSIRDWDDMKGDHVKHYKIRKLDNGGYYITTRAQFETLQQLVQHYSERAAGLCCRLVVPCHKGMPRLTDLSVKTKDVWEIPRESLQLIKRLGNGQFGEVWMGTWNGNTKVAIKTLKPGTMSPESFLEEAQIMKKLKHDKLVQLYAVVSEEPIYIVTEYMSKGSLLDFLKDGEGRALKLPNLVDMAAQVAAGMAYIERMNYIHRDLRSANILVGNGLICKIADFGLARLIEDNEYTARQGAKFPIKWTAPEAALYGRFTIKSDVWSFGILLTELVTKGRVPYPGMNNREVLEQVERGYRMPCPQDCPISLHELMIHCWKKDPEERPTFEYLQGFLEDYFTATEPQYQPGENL
UniProt P25911: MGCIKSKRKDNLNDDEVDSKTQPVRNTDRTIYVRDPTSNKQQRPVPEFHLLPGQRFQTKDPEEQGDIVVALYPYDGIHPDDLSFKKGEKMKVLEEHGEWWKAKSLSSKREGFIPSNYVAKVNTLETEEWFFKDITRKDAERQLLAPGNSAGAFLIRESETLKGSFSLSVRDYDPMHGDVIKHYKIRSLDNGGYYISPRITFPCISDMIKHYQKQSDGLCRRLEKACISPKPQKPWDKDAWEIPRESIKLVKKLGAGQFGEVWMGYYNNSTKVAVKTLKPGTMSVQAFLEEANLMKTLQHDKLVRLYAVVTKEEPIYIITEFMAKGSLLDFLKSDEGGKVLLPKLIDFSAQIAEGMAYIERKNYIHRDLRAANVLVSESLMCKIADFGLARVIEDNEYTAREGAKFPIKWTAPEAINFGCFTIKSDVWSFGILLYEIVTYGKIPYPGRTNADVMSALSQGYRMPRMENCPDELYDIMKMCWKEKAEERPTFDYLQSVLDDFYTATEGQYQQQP
UniProt Q8VDZ4: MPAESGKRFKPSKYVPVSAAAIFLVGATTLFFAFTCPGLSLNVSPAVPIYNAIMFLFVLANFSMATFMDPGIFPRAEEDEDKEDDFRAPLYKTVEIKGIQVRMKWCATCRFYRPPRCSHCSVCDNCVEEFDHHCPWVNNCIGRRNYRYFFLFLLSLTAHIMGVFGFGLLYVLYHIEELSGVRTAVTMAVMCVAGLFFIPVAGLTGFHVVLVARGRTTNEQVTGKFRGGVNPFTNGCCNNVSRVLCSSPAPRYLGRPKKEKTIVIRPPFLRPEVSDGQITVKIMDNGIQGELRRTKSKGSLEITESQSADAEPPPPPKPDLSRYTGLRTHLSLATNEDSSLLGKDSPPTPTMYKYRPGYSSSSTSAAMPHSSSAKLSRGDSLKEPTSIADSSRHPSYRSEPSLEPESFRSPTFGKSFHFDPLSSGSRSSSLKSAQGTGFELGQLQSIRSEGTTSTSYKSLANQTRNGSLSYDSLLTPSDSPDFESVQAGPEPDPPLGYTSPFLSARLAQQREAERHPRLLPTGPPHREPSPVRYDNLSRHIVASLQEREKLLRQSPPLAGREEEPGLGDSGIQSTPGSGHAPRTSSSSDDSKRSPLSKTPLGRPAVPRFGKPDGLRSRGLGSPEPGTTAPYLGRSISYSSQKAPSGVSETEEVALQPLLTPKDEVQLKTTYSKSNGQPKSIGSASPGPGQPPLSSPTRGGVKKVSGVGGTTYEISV

Columns and labels:
[1] = target: Cluster of differentiation (CD36), membrane-localized fatty acid translocase (mouse (endogenous in primary neonatal mouse cardiomyocytes)) (UniProt Q08857); assay: co-IP; endogenous proteins; NP-40 lysates of primary NMCMs treated with PA + OA for 24 h, immunoprecipitated with an antibody and Protein A/G magnetic beads, then western blot; cells from TGR5 fl/fl or TGR5 deltaCM mice, or with or without INT-777; CD36 immunoprecipitation for Fyn and Lyn, precipitating antibody not told for DHHC4 and DHHC5
[2] = target: Cluster of differentiation (CD36), membrane-localized fatty acid translocase (mouse (endogenous in primary neonatal mouse cardiomyocytes)) (UniProt Q08857); assay: as above; remark: listed apart in the source

Molecule | binding [1] | binding [2]
Src family kinase Fyn (from UniProt P39688 1-537) (enzyme) | binds | 
Src family kinase Lyn (from UniProt P25911 1-512) (enzyme) | binds | 
palmitoyl acyltransferase DHHC5 (from UniProt Q8VDZ4 1-715) (enzyme) | binds | 
B1 |  | binds

— paper PMC11199146
